Test results: patent US10494377B1, “Bergenin lipoic acid ester with antioxidant activity and a method of preparing the same” (SHAANXI UNIVERSITY OF SCIENCE AND TECHNOLOGY, priority 2018, dated 2019)

Experiment: DPPH radical scavenging activity assay
Assay type: biochemical
Details: 517 nm
From the text: The Antioxidant Activity of Bergenin Lipoic Acid Ester Measured by a DPPH Radical Scavenging Activity Assay
2,2-Diphenyl-1-picryl hydrazyl (DPPH) is an organic compound composed of a stable organic radical. In the DPPH molecule, due to the presence of multiple electron-withdrawing —NO2 and large π bonds of the benzene ring, nitrogen free radical is stabilized. Its methanol solution is purple and has a maximum absorption peak at 517 nm. After the addition of an antioxidant, DPPH captures an electron to be paired with the free electron, and the purple fades and turns into a yellow substance. The absorption at 517 nm disappears, and the degree of fading is quantitatively related to the number of electrons it captures. Based on this principle, a spectrophotometer is used to detect the change of the absorbance of the DPPH radical in the sample solution, and the ability of the sample to provide hydrogen atoms and scavenge free radicals can be measured.
Preparation of DPPH solution: measuring exact amount of 2,2-diphenyl-1-picryl hydrazyl (DPPH) and dissolving in methanol to prepare a 0.2 mmol/L DPPH solution, stored at 0° C. in dark.
Preparation of test solutions: Vc (vitamin C, positive control), bergenin lipoic acid ester (sample), bergenin (control), lipoic acid (control), and mixture of bergenin and lipoic acid (reference). The test solutions were serially diluted with acetonitrile, and four groups of controls were separately dissolved in a test tube with a certain amount of methanol to prepare the same concentration gradient as the sample.
Absorbance measurement: Take 2 mL of sample solution (Table 1, number B), add 2 mL of DPPH solution with concentration of 2*10^−4 moL/L, mix and react in the dark at room temperature for 30 min, adjust to zero with methanol, and measure at 517 nm. The absorbance Ai was simultaneously measured for the absorbance Aj of 2 mL of methanol mixed with 2 mL of the sample solution and the absorbance Ao of 2 mL of DPPH solution mixed with 2 mL of acetonitrile (The experimental results are shown in Table 2).
Clearance calculation: clearance rate (%) [1−(Ai−Aj)/Ao]*100%

| Compound | Absorbance Ai (sample solution + DPPH solution) (7.02 ppm) | Absorbance Aj (sample solution + methanol) (7.02 ppm) | Absorbance Ai (sample solution + DPPH solution) (140.4 ppm) | Absorbance Aj (sample solution + methanol) (140.4 ppm) | Absorbance Ai (sample solution + DPPH solution) (702 ppm) | Absorbance Aj (sample solution + methanol) (702 ppm) | Absorbance Ai (sample solution + DPPH solution) (2808 ppm) | Absorbance Aj (sample solution + methanol) (2808 ppm) | Absorbance Ai (sample solution + DPPH solution) (7020 ppm) | Absorbance Aj (sample solution + methanol) (7020 ppm) | Absorbance Ai (sample solution + DPPH solution) (17550 ppm) | Absorbance Aj (sample solution + methanol) (17550 ppm) |
| --- | --- | --- | --- | --- | --- | --- | --- | --- | --- | --- | --- | --- |
| COc1c(O)cc2c(c1O)C1OC(COC(=O)CCCCC3CCSS3)C(O)C(O)C1OC2=O (stereo not drawn) [B, Bergenin lipoic acid ester] | 0.993 | 0.194 | 0.621 | 0.189 | 0.461 | 0.200 | 0.257 | 0.201 | 0.230 | 0.204 | 0.223 | 0.205 |
| COc1c(O)cc2c(c1O)[C@@H]1O[C@H](CO)[C@@H](O)[C@H](O)[C@H]1OC2=O [C, Bergenin] | 1.176 | 0.195 | 1.128 | 0.196 | 0.996 | 0.194 | 0.723 | 0.195 | 0.313 | 0.197 | 0.249 | 0.209 |
| O=C(O)CCCCC1CCSS1 (stereo not drawn) [D, Lipoic acid] | 1.023 | 0.192 | 0.994 | 0.199 | 0.826 | 0.196 | 0.622 | 0.210 | 0.373 | 0.195 | 0.292 | 0.199 |
